# Laboratory results as given in PubChem BioAssay AID1508600 (Functional Genomics Laboratory (NCATS/FGL), 2020).
# The campaign covered roughly 53,000 sequences. About 3,700 (7%) were called active.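 Rule for the calls: active = gene knockdowns whose robust z-score for IL-1 alpha signal is at least 2 or at most -2, so actives lie on both sides; inactive = the rest.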 Some of the results follow.
# Assay: Components of the Cytosolic LPS Sensing Pathway: Gene Identification via Genome-wide siRNA Screen
# Conditions: RAW264.7 macrophages, IL-1a HTRF, actives lie on both sides, screened at 100 nM (by protocol), cells primed 5 h with Pam3CSK4 first
# Description: Non-canonical inflammasome activation by cytosolic LPS is a critical component of the host response to Gram-negative bacterial infection, however we lack a comprehensive understanding of the cellular processes that control this pathway. Here we describe a genome-wide siRNA screen to identify genes regulating the mouse macrophage IL-1 alpha response to cytosolic LPS.
# RAW264.7 cells were maintained in complete DMEM media, comprising DMEM with 4.5 g/L glucose, 10% FBS (Gemini Bio-Products, West Sacramento, CA), 2 mM Glutamine (Lonza) and 20 mM HEPES (Lonza), hereafter complete DMEM.
# The RNAi screen was conducted in 384-well format using the Ambion Silencer Mouse Genome siRNA Library (#4391425), which consists of three unique, nonoverlapping, nonpooled siRNAs for each of 17,000 gene targets. siRNA reagents ([…]) were stamped into 384-well white flat-bottom microplates (Corning, 3570) using a Velocity11 VPrep liquid handling system (Agilent) integrated into a BioCel robotic platform (Agilent) in columns 1-22, leaving columns 23-24 empty for negative (Ambion, Negative control #1) and positive (mouse Casp4) controls, respectively. The median value of each plate's negative control column was used to normalize sample wells, and the positive control was used to assess transfection efficiency and assay performance.
# Lipofectamine RNAiMAX Transfection Reagent ([…]; Invitrogen) was added in […] serum-free, antibiotic-free media to plate wells using a Thermo Scientific Matrix WellMate and Microplate Stacker. Plates were incubated for 45 min at room temperature to allow for the sufficient formation of siRNA-lipid complexes. Cells were seeded at a density of 1x10^4 cells per well in 20 microL media containing 20% (vol/vol) FBS without antibiotics. The final concentration of siRNA in each well was 100 nM. Cells were cultured for 48h at 37 degrees C in 5% CO2 before addition of […] of TLR ligand Pam3CSK4 for 5 hours. The medium was then removed, replaced with […] growth media and cell were transfected with […] of LipidA and TransIT-TKO (Mirus) for 24 hour. At the end of the LipidA treatment, […] of supernatant was transferred to a 384 Greiner Bio-one non-binding low volume plate and […] of IL-1a HTRF reagent (Cisbio, 62MIL1APEH) was added and incubated at room temperature overnight. The plates were read on an EnVision plate reader (PerkinElmer). Cell viability was measured by adding 20ul Cell Titer Glo to the original plate and running a luminescence read on the EnVision. The quantified IL-1a signal for each siRNA gene-targeted well was divided by the median of the negative control wells and multiplied by 100 to achieve a negative control normalized value for each well/siRNA. This normalized value was then used to generate a robust z-score by first taking the log of each value and then by subtracting the median and dividing by the […].
row,Sequence,z-score
1,GGAAUGGAAAAACAAAAAGTT against Slc45a2,inactive: -0.756
2,GGAUGAAGACCCAUAUGUGTT against Ap1b1,inactive: -0.287
3,GGUGAGGAGGUACCAGGUATT against Nthl1,inactive: -1.61
4,CGUCAUUGGCCUUCAAAUGTT against Tagln,inactive: -0.645
5,CCAUCAUGAACACCAAGCUTT against Olfr464,inactive: -1.26
6,GGAUGGGCAAAAAGUUGACTT against Timm10,inactive: -0.689
7,GGAGAAAGCUACUUAUAAGTT against Fbxo17,inactive: -0.541
8,GGUUUUGAGCAAAAUUCUATT against Nrd1,inactive: 0.985
9,CCGUUGGAUAAUGUCACAUTT against Stx4a,inactive: 1.73
10,GCUUAUUGUCAUGAUCAUATT against Hsd17b7,inactive: -0.0998
11,GGAGCUGAUUUUCCUAAAGTT against Clec2i,inactive: 0.358
12,GGCGUGUUUUAUGUAUAACTT against Acsl3,inactive: -0.099
13,GCUCGUCAGAGACAAGCAUTT against Ptcd2,inactive: 1.79
14,GCCCAAGGAUUGGCAAAAGTT against Foxj1,inactive: -0.678
15,CGAAAGAGAGAGUGGGUGATT against Cdh3,inactive: -0.572
16,CCUACCUCUUGUUGGAAAATT against Fbxo15,inactive: -0.134
17,GCAAAUGGUGCAUACGUGATT against Slc35d1,inactive: 0.211
18,GCUGAAUGCCAUAAACAGATT against Srms,inactive: 0.87
19,GGCAAGCAUAAAGAUGAAUTT against Sema6d,inactive: -0.242
20,GGAAUUUUAUGCCAAGAAUTT against Hip1r,active: -3.89
21,GGUGUUUACUCCGUACCCATT against Tbrg4,inactive: -2
22,GGAUCAAUAAGGAAUCUCUTT against Ugp2,inactive: -0.417

row,Sequence,z-score
1,GCAGUUGGUAUUGUUAACUTT against Maml1,inactive: -0.0252
2,GGUGAUGAUCUUGUGCCACTT against Rtp4,inactive: -0.367
3,GGUGUGGAGUAUGUAUGCUTT against Aplp1,inactive: -1.11
4,GGAGAUGGUUGGAUCAUUCTT against Arhgef25,inactive: -0.158
5,GGACCUAUUACACACUUGUTT against Mtfmt,inactive: -0.211
6,GGAAGCACUAUAGCCUCAGTT against Olfr39,inactive: 1.68
7,GGAAAAGAAACCAGUUUCUTT against C230012O17Rik,active: -2.07
8,GGUAAGUAUACAAAGAUACTT against Cdc27,inactive: -1.41
9,GGACCUGUAUUCACACCUUTT against Wdr61,inactive: 0.0931
10,GGCCACAAUUAAUUUUUUGTT against Luzp2,inactive: -0.541
11,GCAACAAUGUGGUUCCUAUTT against Rab11a,inactive: 0.616
12,GGACCUGGAGAAAUUGAAGTT against Nlrp6,inactive: 1.82
13,CCUACGAGUAUUCAGAAAGTT against Snx13,inactive: -1.15
14,CCUCUUUUUACUUGCCUAATT against Rassf1,inactive: 0.65
15,GCUGGAGACAUUCGGUGAUTT against Efcab12,inactive: -0.227
16,CCUCGACUUUUAUUUGGAUTT against Smg6,inactive: -0.0389
17,GGAAAUAAUUCACUCACCATT against Eya1,active: -2.99
18,CCACCCAUGAACUCACCAUTT against Pcbp1,inactive: -1.99
19,GGAAAAAGAUGCUUUCACATT against Ccdc113,inactive: -0.518
20,CGUCACUGAGAGAUUCAAATT against Elmod1,inactive: 0.965
21,CCUGACAACUAACGAAGAUTT against Zdhhc18,inactive: -0.254
22,CCUGCAUAUUGGAUUAAUATT against Alkbh5,inactive: 0.0291

# Some of the entries so far, with bars between the fields.
row | Sequence | z-score
12 | GGCGUGUUUUAUGUAUAACTT against Acsl3 | inactive: -0.099
13 | GCUCGUCAGAGACAAGCAUTT against Ptcd2 | inactive: 1.79
15 | CGAAAGAGAGAGUGGGUGATT against Cdh3 | inactive: -0.572
16 | CCUACCUCUUGUUGGAAAATT against Fbxo15 | inactive: -0.134
17 | GCAAAUGGUGCAUACGUGATT against Slc35d1 | inactive: 0.211
18 | GCUGAAUGCCAUAAACAGATT against Srms | inactive: 0.87
19 | GGCAAGCAUAAAGAUGAAUTT against Sema6d | inactive: -0.242
20 | GGAAUUUUAUGCCAAGAAUTT against Hip1r | active: -3.89
21 | GGUGUUUACUCCGUACCCATT against Tbrg4 | inactive: -2
1 | GCAGUUGGUAUUGUUAACUTT against Maml1 | inactive: -0.0252
2 | GGUGAUGAUCUUGUGCCACTT against Rtp4 | inactive: -0.367
3 | GGUGUGGAGUAUGUAUGCUTT against Aplp1 | inactive: -1.11
4 | GGAGAUGGUUGGAUCAUUCTT against Arhgef25 | inactive: -0.158
5 | GGACCUAUUACACACUUGUTT against Mtfmt | inactive: -0.211
7 | GGAAAAGAAACCAGUUUCUTT against C230012O17Rik | active: -2.07
8 | GGUAAGUAUACAAAGAUACTT against Cdc27 | inactive: -1.41
9 | GGACCUGUAUUCACACCUUTT against Wdr61 | inactive: 0.0931
10 | GGCCACAAUUAAUUUUUUGTT against Luzp2 | inactive: -0.541
11 | GCAACAAUGUGGUUCCUAUTT against Rab11a | inactive: 0.616
12 | GGACCUGGAGAAAUUGAAGTT against Nlrp6 | inactive: 1.82
13 | CCUACGAGUAUUCAGAAAGTT against Snx13 | inactive: -1.15
14 | CCUCUUUUUACUUGCCUAATT against Rassf1 | inactive: 0.65
15 | GCUGGAGACAUUCGGUGAUTT against Efcab12 | inactive: -0.227
16 | CCUCGACUUUUAUUUGGAUTT against Smg6 | inactive: -0.0389
17 | GGAAAUAAUUCACUCACCATT against Eya1 | active: -2.99
18 | CCACCCAUGAACUCACCAUTT against Pcbp1 | inactive: -1.99
19 | GGAAAAAGAUGCUUUCACATT against Ccdc113 | inactive: -0.518
20 | CGUCACUGAGAGAUUCAAATT against Elmod1 | inactive: 0.965
21 | CCUGACAACUAACGAAGAUTT against Zdhhc18 | inactive: -0.254
22 | CCUGCAUAUUGGAUUAAUATT against Alkbh5 | inactive: 0.0291

# (list continues)

row,Sequence,z-score
1,GGCAACACACUGUCAUUUCTT against Il9,inactive: -1.06
2,GGCAGAGUCUCUUUCGAAGTT against Foxh1,inactive: 0.358
3,GGCGACGAAGUCACCUAUATT against Carhsp1,inactive: -0.0404
4,CCUCUCCAUACUCACCAUGTT against Tspan17,inactive: -0.473
5,GGCUCUUCUGUCACCUUCATT against Prr3,inactive: 0.234
6,GGCCUGAGCUGAUUGAGUATT against Actn4,inactive: -0.402
7,GGAGAAACAGAUUGAGCAGTT against Atp6v1e2,inactive: 1.31
8,CCGUGUAAGGUGUGGAGUGTT against Mcat,active: -2.27
9,GCUGGUAGAAUACUAAGUATT against Metrn,inactive: 1.05
10,GCUCUAGGGUCGUAAUGUUTT against Ralb,active: -2.33
11,GGAGAGCUUUCUGAACUGUTT against Amigo2,inactive: 1.05
12,GCUAUGUCAUGGAAAGAAUTT against Pik3c2a,inactive: -0.34
13,GCAGAGUGUGGUUAGUGGGTT against Cobl,inactive: -0.218
14,GGGAGUCUGGUGGAUUGAUTT against Rln1,inactive: 0.0253
15,GGAUCAAGUUAUUUCUUACTT against Olfr1156,inactive: -0.0277
16,CCGACACGUUCUCAAUGUCTT against Gss,inactive: -0.496
17,GCACAGAUAUGAGAUCUGUTT against Wwtr1,inactive: 0.564
18,CGCAGGUGUAACACUCAUUTT against Ifitm3,inactive: -0.918
19,GGCUUUUGCUGCUAGAGGUTT against Szt2,inactive: -1.19
20,GGCAGAAACCAACCAACACTT against Gm9734,inactive: 1.46
21,GGAAAAAAGCAAGAAAGACTT against Tssk4,inactive: -0.909
22,GGUGACCACUUUAAACUUCTT against Znhit1,inactive: -0.496

row,Sequence,z-score
1,GGACCAUUUGGUUAAUGCCTT against Fkbp3,inactive: -1.19
2,GGAGUGGAUGACAUGAUCCTT against Myo7b,inactive: 0.806
3,GGUCGGAGUACAGUUCAAATT against Pwwp3a,inactive: 0.699
4,CCAUAUAACUGCCAAUAAUTT against Ankrd7,active: -2.02
5,GGACACAAGUUUUCAGAUCTT against Elmod2,active: 3.02
6,GGCAACUAUGAAAAAUAGUTT against 1700065D16Rik,inactive: -0.111
7,GCGGGCUCACCAUAAUGCATT against Max,inactive: 1.4
8,GGAUGUCCGGAAGAUGUUUTT against Celf3,inactive: -0.284
9,GGAAAAAUCCAGCACAUCCTT against Vps29,inactive: 0.00562
10,GGAGAGCAAGGAAGUACUATT against Speer4b,inactive: -1.62
11,GGUGAAAGCAGCCAUUAAATT against Akr1a1,inactive: -0.35
12,GCCGCCAGUACUAUUCUAUTT against Tctn3,inactive: 0.97
13,GGAGACUCCAACUACUUCATT against Sycp1,inactive: 1.23
14,GGAGUUUCACUACAGCCGGTT against Cdx1,inactive: -0.879
15,GGUCUACAGGCCUAUGUUGTT against Iba57,inactive: 0.914
16,CCCAGGGAGAAUUGACUUGTT against Sertad1,inactive: 0.0114
17,GGUGAUCAACAGGAGUCUGTT against Rgs17,inactive: -0.951
18,GGCUGAGACCUUUUGGUUGTT against Ccdc58,inactive: 0.327
19,GCUUCGUGGCUUUUUAUGATT against Dlgap3,inactive: -0.788
20,GGGUAAAGUACAAUAAACUTT against Atp1b2,inactive: 0.24
21,GGGUUUGACUGUACAGUACTT against Adamts4,inactive: -1.29
22,GGAGUCUAAUAAAACAAGATT against Ankrd16,inactive: 1.17

row,Sequence,z-score
1,GCAGUUCACGCAGUGGAAGTT against Fam25c,inactive: 1.3
2,GGUAAAAGAUGAGAAAAACTT against Plekho1,inactive: -0.523
3,GGUUUAUUUAGCCUUGCUUTT against Dhx33,inactive: 0.704
4,GGACCCUUAGGAAAUGUGCTT against S100a10,inactive: -1.13
5,CAAAAAUAUCUACAGAGUCTT against Olfr494,inactive: 0.207
6,GCGAACUACACUUACUACATT against Aqp12,inactive: -0.525
7,CGACAAUACUCUCUUCAAGTT against Fst,inactive: 0.691
8,GCGAUUGAGAAAGAAUGCGTT against Mrpl45,inactive: 0.34
9,CCACUGGUUCACCUAUAAUTT against Psma5,inactive: 0.092
10,CCAAUUGAGAAAAGUACAGTT against Lrp4,inactive: -0.3
11,GGGUGAAUAAAACUUUGAATT against Haghl,inactive: -0.457
12,CCUGCUUUGUAUCUCCUCCTT against Csprs,inactive: 0.184
13,GCCCUACCUUACCUGAUACTT against Rab17,active: 2.03
14,GCAAAGUCCAGUGAACAACTT against Gtse1,inactive: -1.15
15,GCUAUGGGAUAUGAGCUGATT against Antkmt,inactive: -0.75
16,GGAACCAGGUAGCAGAUCUTT against Cdk2ap2,active: -2.61
17,GGUGGCCAUCAAAGUAAUCTT against Pim2,inactive: 1.44
18,GCAGUUCUCAUACUAUCAUTT against Arhgap33os,inactive: 1.6
19,GCUUCAAGCCUGAGAGUAUTT against Cct8l1,inactive: -0.411
